Laboratory results from patent publication US8815901B2 (Novartis AG, priority 2008, dated 2014).
For at least one compound, name, drawing or mass did not settle the structure.

Amino acid sequences for entries named in this document (tags omitted). Residues count along the entry.
UniProt P22607, 23-806 K650E: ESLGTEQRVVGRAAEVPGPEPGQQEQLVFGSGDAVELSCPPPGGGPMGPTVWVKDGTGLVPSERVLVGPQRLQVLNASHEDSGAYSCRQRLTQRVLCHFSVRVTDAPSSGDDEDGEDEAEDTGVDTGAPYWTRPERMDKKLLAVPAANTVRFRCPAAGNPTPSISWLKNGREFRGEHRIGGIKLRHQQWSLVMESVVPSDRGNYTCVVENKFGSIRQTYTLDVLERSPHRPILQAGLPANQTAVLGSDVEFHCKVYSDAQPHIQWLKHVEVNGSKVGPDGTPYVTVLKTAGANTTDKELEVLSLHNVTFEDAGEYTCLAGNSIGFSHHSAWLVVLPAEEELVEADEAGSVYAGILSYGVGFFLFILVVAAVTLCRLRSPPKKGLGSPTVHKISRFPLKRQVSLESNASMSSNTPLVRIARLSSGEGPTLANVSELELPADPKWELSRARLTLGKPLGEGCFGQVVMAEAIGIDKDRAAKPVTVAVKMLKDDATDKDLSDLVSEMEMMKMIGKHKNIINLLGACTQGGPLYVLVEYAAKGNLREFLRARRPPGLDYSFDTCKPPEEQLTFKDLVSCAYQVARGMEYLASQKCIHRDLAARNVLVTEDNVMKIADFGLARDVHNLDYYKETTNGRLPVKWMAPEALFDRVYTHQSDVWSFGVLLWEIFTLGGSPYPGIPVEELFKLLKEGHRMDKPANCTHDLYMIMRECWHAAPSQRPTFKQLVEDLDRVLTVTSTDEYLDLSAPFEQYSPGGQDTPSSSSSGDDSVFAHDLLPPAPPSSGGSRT

Molecular target: FGFR3 kinase (Homo sapiens (Human), UniProt P22607, K650E)
Assay: FGFR3 kinase inhibition assay (radiometric filter binding / LanthaScreen TR-FRET)
Assay type: biochemical
Settings: read-out: rating (FGFR3 kinase IC50)
Protocol: Enzyme activities were measured by mixing 10 μL of a 3-fold concentrated compound solution or control with 10 μL of the corresponding substrate mixture (peptidic substrate, ATP and [γ^33P]ATP). The reactions were initiated by addition of 10 μL of a 3-fold concentrated solution of the respective enzyme in assay buffer.
Filter binding (FB) method: FB assays were carried out in 96-well plates at room temperature for 10 min in a finial volume of 30 μL including the components as indicated in section above. […] After spotting, vacuum was connected and each well rinsed with 200 μL 0.5% H3PO4. Free membranes were removed and washed 4 times on a shaker with 1% H3PO4 and once with ethanol. Membranes were dried and overlaid with addition of 10 μL/well of a scintillation fluid. The plates were eventually sealed and counted in a microplate scintillation counter. IC50 values were calculated by linear regression analysis of the percentage inhibition of the compound.
The assay has been run at room temperature on a liquid handling robot. […] After an incubation time of 45 min in the dark, the plates were transferred into a fluorescence reader for counting.
Compounds of formula (I) are assayed to measure their capacity to inhibit FGFR3 kinase as described above.

CCN1CCN(c2ccc(NC(=O)c3ccc(-c4c(Cl)c(OC)cc(OC)c4Cl)c4cccnc34)cc2)CC1 [Example 159, 5-(2,6-Dichloro-3,5-dimethoxy-phenyl)-quinoline-8-carboxylic acid [4-(4-ethyl-piperazin-1-yl)-phenyl]-amide]
IC50: < 100 nM
